Measurements reported in patent publication US20250296942A1, “Phosphonate-Based Coordination Complexes and Methods of Preparation and Use Thereof” (University of Puerto Rico, priority 2021, published 2025).
Read-outs that look alike come from different tables or passages of the source. For at least one compound, name, drawing or mass did not settle the structure.

What was measured:
[1] = FaSSGF pH 1.60
[2] = PBS pH 7.40

Compound: O=P(O)(O)C(O)(Cc1cccnc1)P(=O)(O)O [H-RISE, risedronic acid]
- time to reach maximum dissolution [1]: 18 h
- time to reach maximum dissolution [2]: 30 min
